Assay results taken from patent publication US6156774A, “Beta-thiopropionyl-amino acid derivatives and their use as beta-lactamase inhibitors” (SmithKline Beecham P.L.C., priority 1996, dated 2000).
Some entries share one result that the patent states for a list of compounds.

Amino acid sequences for entries named in this document (tags omitted). Residues count along the entry.
UniProt P25910, 19-249: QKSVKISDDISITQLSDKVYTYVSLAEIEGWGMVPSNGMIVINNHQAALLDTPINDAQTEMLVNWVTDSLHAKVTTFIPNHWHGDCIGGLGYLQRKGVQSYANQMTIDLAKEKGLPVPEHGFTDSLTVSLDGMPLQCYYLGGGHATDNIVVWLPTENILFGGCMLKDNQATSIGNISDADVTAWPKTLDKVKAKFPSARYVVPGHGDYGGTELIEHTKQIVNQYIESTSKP

Each compound was assayed against B. fragilis CfiA metallo-β-lactamase (Bacteroides fragilis, UniProt P25910) (assay: I50 screen, nitrocefin reporter substrate). Settings: 25 mM PIPES pH 7, 37° C., nitrocefin 91 μM, 5 minute preincubation, Zn2+ 100 μM; read-out: I50 against B. fragilis CfiA metallo-β-lactamase.
Format: biochemical
Experimental: The inhibitory activity of the compounds of the invention was measured in 25 mM PIPES pH 7 buffer at 10 concentrations (1000, 333, 111, 37, 12.3, 4.1, 1.4, 0.46, 0.15 and 0.05 μM) at 37° C. using nitrocefin (91 μM final concentration) as the reporter substrate. The assays were performed with a 5 minute preincubation of enzyme and inhibitor and were conducted in the presence of added zinc sulphate (Zn^2+ 100 μM, final concentration). the methodology is described in detail in the following references: Payne et al (1991), J. Antimicrob. Chemother., 28:255; Payne et al (1994), Antimicrob. Agents and Chemother., 38:767.

| SMILES | IC50 [µM] |
| --- | --- |
| COc1ccc(Cc2cccc(C(NC(=O)C(CS)CCc3ccccc3)C(=O)O)c2)cc1 (single isomer, unassigned) [Example 6, N-(2'-mercaptomethyl-4'-phenylbutanoyl)-m-(p-methoxybenzyl)-phenylglycine] | < 1 |
| O=C(NC(C(=O)O)c1ccccc1Oc1ccccc1)C(CS)CCc1ccccc1 (single isomer, unassigned) [Example 10, N-(2'-mercaptomethyl-4'-phenylbutanoyl)-o-phenoxy-phenylglycine] | < 1 |
| O=C(NC(C(=O)O)c1ccc(Oc2ccccc2)cc1)C(CS)CCc1ccccc1 (single isomer, unassigned) [Example 12, N-(2'-mercaptomethyl-4'-phenylbutanoyl)-p-phenoxy-phenylglycine] | < 1 |
| COc1ccc(Oc2cccc(C(NC(=O)C(CS)CCc3ccccc3)C(=O)O)c2)cc1 (single isomer, unassigned) [Example 14, N-(2'-mercaptomethyl-4'-phenylbutanoyl)-m-(p-methoxyphenoxy)-phenylglycine] | < 1 |
| COc1ccc(COc2ccc([C@@H](NC(=O)C(CS)CCc3ccccc3)C(=O)O)cc2)cc1 (single isomer, unassigned) [Example 40, N-(2'-mercaptomethyl-4'-phenylbutanoyl)-p-(p-methoxy)-benzyloxy-D-phenylglycine] | < 1 |
| O=C(N[C@@H](C(=O)O)c1ccc(OCc2ccco2)cc1)C(CS)CCc1ccccc1 (single isomer, unassigned) [Example 44, N-(2'-mercaptomethyl-4'-phenylbutanoyl)-p-(2"-furanylmethoxy)-D-phenylglycine] | < 1 |
| O=C(N[C@@H](C(=O)O)c1ccc(OCc2ccc(O)cc2)cc1)C(CS)CCc1ccccc1 (single isomer, unassigned) [Example 45, N-(2'-mercaptomethyl-4'-phenylbutanoyl)-p-(p-hydroxy)-benzyloxy-D-phenylglycine] | < 1 |
| O=C(O)c1cccc(COc2cccc([C@@H](NC(=O)C(CS)CCc3ccccc3)C(=O)O)c2)c1 (single isomer, unassigned) [Example 59, N-(2'-mercaptomethyl-4'-phenylbutanoyl)-m-(m-carboxy)-benzyloxy-D-phenylglycine] | < 1 |
| O=C(O)c1ccc(COc2cccc([C@@H](NC(=O)C(CS)CCc3ccccc3)C(=O)O)c2)cc1 (single isomer, unassigned) [Example 61, N-(2'-mercaptomethyl-4'-phenylbutanoyl)-m-(p-carboxy)-benzyloxy-D-phenylglycine] | < 1 |
| Nc1cccc(COc2ccc([C@@H](NC(=O)C(CS)CCc3ccccc3)C(=O)O)cc2)c1 (single isomer, unassigned) [Example 63, N-(2'-mercaptomethyl-4'-phenylbutanoyl)-p-(m-amino)-benzyloxy-D-phenylglycine] | < 1 |
| O=C(NC(C(=O)O)c1cccc(OCc2ccccc2)c1)C(CS)CCc1ccccc1 (stereo not drawn) [Example 7, N-(2'-mercaptomethyl-4'-phenylbutanoyl)-m-benzyloxy-phenylglycine] | < 1 |
| O=C(NC(C(=O)O)c1cccc(Cc2ccc(O)cc2)c1)C(CS)CCc1ccccc1 (stereo not drawn) [Example 8, N-(2'-mercaptomethyl-4'-phenylbutanoyl)-m-(p-hydroxybenzyl)-phenylglycine] | < 1 |
| O=C(NC(C(=O)O)c1cccc2c1Cc1ccccc1-2)C(CS)CCc1ccccc1 (stereo not drawn) [Example 9, N-(2'-mercaptomethyl-4'-phenylbutanoyl)-(1-fluorenyl)glycine] | < 1 |
| CCn1c2ccccc2c2cc(C(NC(=O)C(CS)CCc3ccccc3)C(=O)O)ccc21 (stereo not drawn) [Example 16, N-(2'-mercaptomethyl-4'-phenylbutanoyl)-(N-Ethyl-3-carbazolyl)glycine] | < 1 |
| O=C(NC(C(=O)O)c1ccc(Cc2ccccc2)s1)C(CS)CCc1ccccc1 (stereo not drawn) [Example 24, 2-[(5-Benzyl)thien-2-yl]-N-[2-(mercaptomethyl)-4-phenylbutyryl]glycine] | < 1 |
| O=C(NC(C(=O)O)c1ccc(Cc2ccccc2)o1)C(CS)CCc1ccccc1 (stereo not drawn) [Example 25, 2-[(5-Benzyl)furan-2-yl]-N-[2-(mercaptomethyl)-4-phenylbutyryl]glycine] | < 1 |
| O=C(NC(C(=O)O)c1ccc(CC2CCOC2)s1)C(CS)CCc1ccccc1 (stereo not drawn) [Example 26, 2-[5-(Tetrahydrofuran-3-ylmethyl)thien-2-yl]-N-[2-(mercaptomethyl)-4-phenylbutyryl]glycine] | < 1 |
| O=C(NC(C(=O)O)c1ccc(Cn2cnnn2)s1)C(CS)CCc1ccccc1 (stereo not drawn) [Example 27, 2-[5-(1-Tetrazolymethyl)thien-2-yl]-N-[2-(mercaptomethyl)-4-phenylbutyryl]glycine] | < 1 |
| O=C(NC(C(=O)O)c1ccc(Cn2ncnn2)s1)C(CS)CCc1ccccc1 (stereo not drawn) [Example 28, 2-[5-(2-Tetrazolylmethyl)thien-2-yl]-N-[2-(mercaptomethyl)-4-phenylbutyryl]glycine] | < 1 |
| O=C(NC(C(=O)O)c1ccc(Cn2ccnn2)s1)C(CS)CCc1ccccc1 (stereo not drawn) [Example 29, 2-[5-(1,2,3-Triazol-1-ylmethyl)thien-2-yl]-N-[2-(mercaptomethyl)-4-phenylbutyryl]glycine] | < 1 |
| O=C(NC(C(=O)O)c1ccc(Cn2nccn2)s1)C(CS)CCc1ccccc1 (stereo not drawn) [Example 30, 2-[5-(1,2,3-Triazol-2-ylmethyl)thien-2-yl]-N-[2-(mercaptomethyl)-4-phenylbutyryl]glycine] | < 1 |
| O=C(NC(C(=O)O)c1ccc(CN2C(=O)CNC2=O)s1)C(CS)CCc1ccccc1 (stereo not drawn) [Example 31, 2-[5-(Imidazolidin-2,4-dion-3-ylmethyl)thien-2-yl]-N-[2-(mercaptomethyl)-4-phenylbutyryl]glycine] | < 1 |
| COc1ccc(Cc2ccc(C(NC(=O)C(CS)CCc3ccccc3)C(=O)O)s2)cc1 (stereo not drawn) [Example 32, 2-[5-(4-methoxybenzyl)thien-2-yl]-N-[2-(mercaptomethyl)-4-phenylbutyryl]glycine] | < 1 |
| O=C(NC(C(=O)O)c1ccc(Cc2ccccc2)o1)C(CS)Cc1ccccc1 (stereo not drawn) [Example 33] | < 1 |
| O=C(O)c1nnn(Cc2ccc(C(NC(=O)C(CS)CCc3ccccc3)C(=O)O)s2)c1C(=O)O (stereo not drawn) [Example 35, 2-[5-(4,5-Dicarboxytriazol-1-ylmethyl)thien-2-yl]-N-[2-(mercaptomethyl)-4-phenylbutyryl]glycine] | < 1 |
| NC(=O)c1cn(Cc2ccc(C(NC(=O)C(CS)CCc3ccccc3)C(=O)O)s2)nn1 (stereo not drawn) [Example 36, 2-[5-(4-Carboxamidotriazol-1-ylmethyl)thien-2-yl]-N-[2-(mercaptomethyl)-4-phenylbutyryl]glycine] | < 1 |
| O=C(O)c1cn(Cc2ccc(C(NC(=O)C(CS)CCc3ccccc3)C(=O)O)s2)nn1 (stereo not drawn) [Example 37, 2-[5-(4-Carboxytriazol-1-ylmethyl)thien-2-yl]-N-[2-(mercaptomethyl)-4-phenylbutyryl]glycine] | < 1 |
| O=C(O)c1cnnn1Cc1ccc(C(NC(=O)C(CS)CCc2ccccc2)C(=O)O)s1 (stereo not drawn) [Example 38, 2-[5-(5-Carboxytriazol-1-ylmethyl)thien-2-yl]-N-[2-(mercaptomethyl)-4-phenylbutyryl]glycine] | < 1 |
| O=C(NC(C(=O)O)c1ccc2c(c1)oc1ccccc12)C(CS)CCc1ccccc1 (stereo not drawn) [Example 41, N-(2'-mercaptomethyl-4'-phenylbutanoyl)-(3"-dibenzofuranyl) glycine] | < 1 |
| CC(=O)Nc1ccc(COc2ccc([C@@H](NC(=O)C(CS)CCc3ccccc3)C(=O)O)cc2)cc1 (stereo partly drawn) [Example 58, N-(2'-RS-mercaptomethyl-4'-phenylbutanoyl)-p-(p-acetamido)-benzyloxy-D-phenylglycine] | < 1 |
